Source: PubChem BioAssay AID1259308 (NCATS, 2017)
The whole screen tested about 59,000 reagents; shown is an unselected part. About 1,510 of them (2.6%) were called active. 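Calls use total luciferase alone and ignore viability, so some active siRNAs may act by altering cell number.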 The numbers tell different reagents against one gene apart. Further read-outs or replicates are left out here.

Aim: 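Genes whose loss raises luciferase production in HEK293 cells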 (primary screen)
Cell system: human HEK293 embryonic kidney cells stably expressing firefly luciferase (HEK-CMV-Luc2-Hygro)
Knock-down reagent: single siRNA against human genes, 0.8 pmol siRNA per well
Time to read-out: 72 h
Measurement: 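Reporter luminescence and viable-cell signal on separate replicate plates, given as percent of non-targeting control and median/MAD z-scores, plus per-cell luciferase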
Reading the numbers: total luciferase, z-score: higher = more reporter protein produced
Rule for the call: 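Active when the median/MAD z-score for overall luciferase is greater than 3; a gene was taken forward for validation with new siRNAs if at least two of its three siRNAs passed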
Calls: active = raised luciferase; inactive = no rise

total luciferase, z-score, by target and reagent
BSN: #1 -1.29 inactive; #2 -0.426 inactive; #3 0.0411 inactive
EIF2B2: #1 -1.53 inactive; #2 -0.877 inactive; #3 -1.11 inactive
B4GALT1: #1 -0.558 inactive; #2 0.0522 inactive; #3 -1.22 inactive
CLMB: #1 -1.08 inactive; #2 -0.59 inactive; #3 0.214 inactive
RPL10P8: #1 -1 inactive; #2 0.038 inactive; #3 1.75 inactive
TOR1B: #1 -0.0729 inactive; #2 -2.3 inactive; #3 -1.21 inactive
GABRR1: #1 -0.422 inactive; #2 -1.96 inactive; #3 -0.899 inactive
SRSF8CP: #1 0.638 inactive; #2 0.113 inactive; #3 -2.41 inactive
FLJ46284: #1 0.503 inactive; #2 2.82 inactive; #3 0.135 inactive
FBXW10: #1 0.184 inactive; #2 -1.51 inactive; #3 0.531 inactive
BZW2: #1 0.232 inactive; #2 -0.508 inactive; #3 1.86 inactive
TUBG2: #1 -1.21 inactive; #2 -0.217 inactive; #3 0.397 inactive
SLC25A44: #1 -2.92 inactive; #2 -0.107 inactive; #3 -0.536 inactive
HMGB1P1: #1 1.82 inactive; #2 -0.704 inactive; #3 -0.376 inactive
NLGN3: #1 -0.369 inactive; #2 -1.78 inactive; #3 0.165 inactive
KREMEN2: #1 -0.598 inactive; #2 0.133 inactive; #3 1.45 inactive
GGT5: #1 -1.09 inactive; #2 0.403 inactive; #3 1.63 inactive
MAP6D1: #1 0.536 inactive; #2 -0.692 inactive; #3 0.291 inactive
CCDC121: #1 0.3 inactive; #2 1.06 inactive; #3 0.311 inactive
SLC5A12: #1 1.23 inactive; #2 -1.3 inactive; #3 -1.32 inactive
ILF3: #1 -0.474 inactive; #2 0.103 inactive; #3 0.0435 inactive
TPT1: #1 2.92 inactive; #2 -1.22 inactive; #3 -1.09 inactive
PRUNE1: #1 0.247 inactive; #2 -0.63 inactive; #3 -0.518 inactive
HSD17B13: #1 0.254 inactive; #2 -1.03 inactive; #3 -0.117 inactive
YWHAE: #1 -1.7 inactive; #2 0.649 inactive; #3 -0.0927 inactive; #4 -1.33 inactive; #5 0.0195 inactive; #6 0.61 inactive

13 entries already listed, ordered by “total luciferase, z-score”, descending.
target	siRNA no.	total luciferase, z-score	outcome
FLJ46284	2	2.82	inactive
SRSF8CP	1	0.638	inactive
FBXW10	3	0.531	inactive
FLJ46284	1	0.503	inactive
FBXW10	1	0.184	inactive
FLJ46284	3	0.135	inactive
SRSF8CP	2	0.113	inactive
GABRR1	1	-0.422	inactive
GABRR1	3	-0.899	inactive
TOR1B	3	-1.21	inactive
FBXW10	2	-1.51	inactive
GABRR1	2	-1.96	inactive
SRSF8CP	3	-2.41	inactive
